The structures appear in SMILES notation. The list shows a part of the results. These are further read-outs of the screen, such as a control signal, another cell line or another target. No call is given for them. Most of these compounds were active or inconclusive in the main read-out, so they are no random draw. The note in brackets gives the kind of curve behind each potency; many fits are weak.

This note sets out measurements from PubChem BioAssay AID2685 (National Center for Advancing Translational Sciences (NCATS), 2010).

The experiment is described as follows: qHTS Assay for Lipid Storage Modulators in Drosophila S3 Cells.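 On cell number change: cells counted by Cell Tracker Red CMTPX staining in the red channel.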 To be noted: BODIPY lipid droplet fluorescence, 18-24 h; for cell number change: measured here: cell count max response, cells fed with added oleic acid. A digest of the protocol:
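Drosophila S3 cells got compounds at several concentrations plus oleic acid (400 uM solution). Laser-scanning cytometry with 488 nm excitation read lipid droplets at 500-530 nm and cells at 575-640 nm. Percent activity was relative to 20 uM Triacsin C.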

[1] abbreviates: measured here: cell number channel AC50, cells fed with added oleic acid.
Setting [2] is: measured here: lipid fluorescence (Fed channel) AC50, cells fed with added oleic acid.

With `CN(C)/C=C1\C(=O)NN=C1C(F)(F)F`, the cell number change is -110%. In addition, under setting [1], the AC50 (commonly the concentration giving half of the maximal activity seen) is 25.9 µM [falling, single point].
As to `CC(NC(=O)Cc1ccc(F)cc1)c1ccc(F)cc1` (centres undefined), the cell number change was -12.1%. Besides, the half-maximal activity concentration (AC50) under setting [1] is 0.13 µM [falling, full curve, poor fit]. The half-maximal activity concentration (AC50) under setting [2] was 1.03 µM [falling, full curve, poor fit].
Consider `CC(C)CNC(=O)c1cccc(NC(=O)Cc2ccc(Br)cc2)c1`, for which the cell number change turned out to be 16.1%. Moreover, the AC50 under setting [2] is 16.4 µM [rising, partial curve].
Take `CCOC(=O)C(NC(=O)CC)C(O)c1cccc([N+](=O)[O-])c1` (centres undefined): the cell number change is -23.1%. The AC50 under setting [2] was 29.1 µM [falling, single point].
Turning to `COc1ccccc1C(=O)NCC(c1cccs1)N1CCc2ccccc21` (centres undefined), the AC50 under setting [1] was 2.06 µM [rising, partial curve].
For the molecule `CCc1[nH]nc2c1C1(CCOC1C)C(C#N)=C(N)O2` (centres undefined), the cell number change stood at 11.8%.
As for `C#CCSc1nnc(-c2ccc(OC)cc2)o1`, the cell number change worked out at 68.2%. In addition, the half-maximal activity concentration (AC50) under setting [1] was 0.731 µM [rising, full curve]. Besides, the half-maximal activity concentration (AC50) under setting [2] was 1.03 µM [rising, full curve].
As for `CCOc1cccc(OCCOCCN(C)Cc2ccccc2)c1`, the cell number change was -22.8%. Besides, the AC50 under setting [2] is 29.1 µM [falling, single point].
Regarding `O=C(CSc1nnnn1-c1ccc2c(c1)OCCO2)c1cccc2c1OCCO2`, the cell number change stood at 2.31%. Further, the AC50 under setting [2] was 18.4 µM [falling, single point].
For the molecule `COc1c(N2CCN(C(=S)NC3CC4CCC3C4)C(C)C2)c(F)cc2c(=O)c(C(=O)O)cn(C3CC3)c12` (centres undefined), the cell number change was -10.5%. Moreover, under setting [2], the AC50 is 1.16 µM [falling, full curve].
As to `O=C(O)c1ccc(Cl)c(S(=O)(=O)Nc2ccccc2N2CCOCC2)c1`, the cell number change worked out at 28.1%. Also, the AC50 under setting [1] is 4.61 µM [rising, full curve, poor fit]. Moreover, under setting [2], the half-maximal activity concentration (AC50) was 4.11 µM [rising, full curve].
`COc1ccc2c(c1)OC[C@H]1[C@H]2N2C(=O)CN(CCc3c[nH]c4ccccc34)C(=O)[C@@]2(C)[C@H]1c1ccccc1`: the cell number change is -9.64%. The AC50 under setting [2] is 29.1 µM [falling, single point].
Turning to `O=C1c2cccc3cccc(c23)C(=O)N1Cc1cccnc1`, the cell number change is 17.4%.
With `CCC1(C)Cc2c(sc3nc4n(c(=O)c23)CCS4)CO1` (centres undefined), the cell number change was -2.03%. Further, under setting [1], the concentration at half-maximal activity (AC50) was 0.651 µM [falling, single point].
For `CSCCC(NC(=O)c1ccc(Cl)cc1Cl)C(=O)NNC(=O)c1ccncc1` (centres undefined), the cell number change is -8.76%. For the same molecule, the AC50 under setting [1] was 1.46 µM [falling, partial curve]. Besides, under setting [2], the AC50 is 1.64 µM [falling, partial curve].
As for `COCCn1c(CN2CCN(C)CC2)nc2c1c(=O)n(C)c(=O)n2C`, the cell number change is -15.4%.
On to `Cc1noc(C)c1S(=O)(=O)N1CCC(C(=O)N(C)Cc2ccccc2)CC1`, for which the cell number change was 14.4%. Moreover, the concentration at half-maximal activity (AC50) under setting [2] was 16.4 µM [falling, single point].
